Assay results as given in PubChem BioAssay AID1508600 (Functional Genomics Laboratory (NCATS/FGL), 2020).
In all, about 53,000 sequences went through this assay and about 3,700 (7%) were called active.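 How the source made its calls: active means gene knockdowns whose robust z-score for IL-1 alpha signal is at least 2 or at most -2, so actives lie on both sides; inactive means the rest.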 The list shows a part of the results.

Assay: Components of the Cytosolic LPS Sensing Pathway: Gene Identification via Genome-wide siRNA Screen;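 further: robust z of the log signal after scaling to non-targeting control siRNA wells of the plate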
Conditions: RAW264.7 macrophages, IL-1a HTRF, actives lie on both sides, screened at 100 nM (by protocol), cells primed 5 h with Pam3CSK4 first
In short: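 Mouse macrophage line RAW264.7 is transfected with siRNA (100 nM final), grown 48h, primed with TLR ligand Pam3CSK4 5 h and given intracellular LipidA 24 h. IL-1a in supernatant is read by HTRF and viability by luminescence.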

z-score, active:
GGGCUAAAGUUGAUAAUAATT against Psmc3 -2.02
GGUAAGUGGAGGUAUUCUUTT against Egln1 2.28
GGCUGGUACAAAGUUUUAGTT against Mpv17 2.55
GGUUCACCUGGAUUCUGCATT against Clasrp -2.1
GCUUAGAUCUUACCCACCCTT against Ptcra 2.52
GCAAGAUGGUAUCAGCAGATT against Sde2 -2.1

z-score, inactive:
GGAGGACUAAUGGUGUUCATT against Pcnx4 -0.0404
GGUGCAUGCACAAGUGUUUTT against Esrra 2
CGGAGAACCAACCUAAGUUTT against Dok1 0.654
GAGUUCAUCCCGUAUCACCTT against Cox6a2 -1.29
GCGGCGAUACUUCUACUUGTT against Grk2 -0.584
GGCACUUGAACAGAGUAGUTT against Spata17 -1.74
GCGCAAUGCAGAACUACGATT against Tac1 0.23
GGAUAUGACAGCUUUCUUUTT against T2 -0.814
CCUUCCUAACCAAUGAUGATT against Fam155a -1.66
GGAGGUUCAACAUGAAAAUTT against Lingo2 -0.253
GGUUCAACAAAACAGGCUUTT against Serpina1f -1.01
CGAUGUAACAAAUGAGAUUTT against Gpbp1 -0.685
GGCAGAAUGCACAGAACCUTT against Cpz -1.38
GCAAAUUUUGUACCAGGCCTT against Hnf1b -1.89
GGAUGACCAACAACUAAAGTT against Sytl2 -0.353
GGGUAAUGAGCUUGGUGAATT against Zfp53 -1.45
GGACCUAAUAUCAUACUCATT against Crtc2 -0.649
CGAAGCUAAAGGAUAUAGATT against Fahd1 0.477
GGGUGACCUUUACGUCUUCTT against Reep1 0.0877
GGAUAACCGCCAAUAAAAATT against Msantd3 0.255
GGAAUCAGUUUCAGAGAAUTT against Mtf2 -0.557
GGAUAAAGCAUCAGACAAATT against Hmgn1 -0.202
GGUACAGGAAAAAAGAAGATT against Msl3 -0.784
GCAAUGUGACCAAGACAAUTT against Prelid1 0.739
GGAUGUCUUUGUUCACCAGTT against Ybx2 -0.267
GGCUCCUUUGGAGAAGUUUTT against Stk26 0.856
CCAUCAAGAAUGUCCGUGATT against Pkm -0.969
GGAAUAUGGAAAGACCUUUTT against Zfp790 -0.592
GGCAGUUCUUAAGUAAUCATT against Fem1al 0.924
CGCAGAGUUGAUUGUCCUGTT against Neu2 -1.41
CGCUGAGCACUUUUCGGAATT against Rbp1 0.935
GGAACACGAAUCAUUUAUGTT against Eif4ebp2 0.351
GGCCAUUCAGACGAGUGUUTT against Hivep3 -1.44
GGCAUUCCAGUAAUUUUGGTT against Lpar4 0.875
CCCGUCUGCAUGCUGAAAATT against Pisd-ps1 0.0779
CCUCAAGACUAUCAGGAGATT against Nrbf2 0.434
GGCAGAGGUUGAAAGACUUTT against Cibar1 0.332
CGGAAACAAACGGACUGAUTT against Agpat4 0.243
GCAGUACAGAUCGCCAUUATT against Tmeff1 0.91
GGCACAGCUGAUGAAACAATT against Ap2m1 -0.667
GGCAUGUAAUUUGAUGAUCTT against Mansc1 -1.48
GGCCACUUUUCACCACAAATT against Cypt3 0.22
GCCAAUGGUCACGAACCUATT against Senp5 -0.217
GGAUCAAGGAAGCUCUCAGTT against Retnlb -0.121
GGUUGAUUAGAAUUGAUGCTT against Fermt1 -1.02
GGCAAAGCAAGCUAUAUCCTT against Cxcr5 0.55
GCGGGACACCAUCAAUCCATT against Sytl4 0.322
GGAUGUGUGAAUCUACUGATT against Gpm6a -0.432
GCUCAUAUACUCUAAAUUGTT against Vmn1r63 -0.587
GGGUGAGUAUAUGAUUCCUTT against Ctsd -1.5
GCUUGUGGAUUCGAUUUGGTT against Gtf3c5 0.485
GGUAGAGCAGAGCCUCCAUTT against Olfr555 0.933
CCGUGAAUUUUCAUUCACATT against Prim1 0.289
GGAAGAAUCGUUUAUGACATT against Ppp4r2 0.73
GGAUGUUCCAGCCCUUAUUTT against Rtl3 0.351
GGUGCUGUUGAAUUGUGGGTT against Wdr77 -0.366
CCCAAUACCCAGGACUCAATT against Zfp51 -0.542
GGUUUUAAGUUCUAGGGAATT against Olfr1288 -0.599
GGAAGACGGGCAUCAUGAATT against Srf 0.251
GGAUGACCACACUAACCUCTT against Fars2 0.915
GCUAUAUUGUUAGCACACATT against Hmgn2 0.326
CGCUAUCUCGUUCAGGAUATT against Timm23 1.95
GGAGCAGUUGUGUUUAACATT against Psg17 0.596

Already shown: an excerpt of the list.
z-score, inactive:
GGUGCAUGCACAAGUGUUUTT against Esrra 2
CGGAGAACCAACCUAAGUUTT against Dok1 0.654
GAGUUCAUCCCGUAUCACCTT against Cox6a2 -1.29
GCGGCGAUACUUCUACUUGTT against Grk2 -0.584
GGCACUUGAACAGAGUAGUTT against Spata17 -1.74
